# Assay results published in article PMC8745574.
# Results are given in words; binding and its absence hold for the method and conditions named. Some binding calls cover weakened binding; strength is not graded here.
# B1: actin-related protein 4 (ARP4) (protein, UniProt Q84M92 1-441)
# chain: MYGGDEVSAIVVDLGSHTCKAGYAGEDAPKAVFPSVIGAVDGVEAMDVDVDSTKTNSNSEDSKTESEKEKSKRKLYVGSQAMSYRRDHMEVLSPIKDGIVSDWDLVDNIWEHAFKSCLMIDPTEHPMLLAEPPLNTQQQREKAAELMFEKYKVPALFMAKNPVLTSFATGRATSLVVDCGGGSTTISPVHDGYVLQKAVVSSPLGGEFLTDCLLKSLESKGIKIRPRYSFKRKEVRAGEFQVEDVDIPDTTESYKLFCQRMIVGDIKDSICRVPDTPYDDKSYSNIPTTSYELPDGQTLEIGADRFKVPDVMFNPSIVQTIPGMEKYAEMIPSVRGLPHMVMESINKCDVDIRRELYSSILLAGGTSSMQQLKERLEKDLIEESPHSARVKVLASGNTTERRFSVWIGGSILASLGSFQQMWFSKSEYEEHGASYIQRKCP
# Columns and labels:
# Test in all cases: two-hybrid; Matchmaker GAL4 system, pGADT7-DEST/pGBKT7-DEST, S. cerevisiae PJ69-4α, 30 °C; growth on -LWH plates (with increasing 3-aminotriazol) and -LWHAde plates
# [1] = biological target: T1, high-mobility-group B4 (HMGB4) protein (Arabidopsis thaliana) (UniProt Q42344)
# T1 sequence: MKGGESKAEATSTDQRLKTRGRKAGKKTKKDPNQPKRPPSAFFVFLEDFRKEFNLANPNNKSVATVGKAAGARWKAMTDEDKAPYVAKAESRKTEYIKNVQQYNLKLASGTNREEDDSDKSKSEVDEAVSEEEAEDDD
# [2] = biological target: T2, AtTERT RID construct (1-271 aa) (Arabidopsis thaliana) (UniProt Q9SPU7)
# T2 sequence: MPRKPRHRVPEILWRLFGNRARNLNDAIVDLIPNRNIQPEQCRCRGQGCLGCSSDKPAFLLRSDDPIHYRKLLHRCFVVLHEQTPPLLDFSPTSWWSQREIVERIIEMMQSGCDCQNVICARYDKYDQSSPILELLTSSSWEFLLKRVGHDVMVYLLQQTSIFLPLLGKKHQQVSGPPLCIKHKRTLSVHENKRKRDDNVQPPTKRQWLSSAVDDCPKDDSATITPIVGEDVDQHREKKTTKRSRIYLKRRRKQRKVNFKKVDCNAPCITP
# [3] = biological target: T3, AtTERT TEN construct (1-233 aa) (Arabidopsis thaliana) (UniProt Q9SPU7)
# T3 sequence: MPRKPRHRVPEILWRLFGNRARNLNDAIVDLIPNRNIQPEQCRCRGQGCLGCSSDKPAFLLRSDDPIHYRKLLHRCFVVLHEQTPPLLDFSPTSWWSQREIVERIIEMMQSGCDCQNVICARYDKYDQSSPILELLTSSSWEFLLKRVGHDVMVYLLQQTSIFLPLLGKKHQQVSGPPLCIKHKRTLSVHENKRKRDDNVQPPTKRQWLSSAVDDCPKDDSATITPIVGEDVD
# [4] = biological target: T4, POT1a (Arabidopsis thaliana) (UniProt Q56Y52)
# T4 sequence: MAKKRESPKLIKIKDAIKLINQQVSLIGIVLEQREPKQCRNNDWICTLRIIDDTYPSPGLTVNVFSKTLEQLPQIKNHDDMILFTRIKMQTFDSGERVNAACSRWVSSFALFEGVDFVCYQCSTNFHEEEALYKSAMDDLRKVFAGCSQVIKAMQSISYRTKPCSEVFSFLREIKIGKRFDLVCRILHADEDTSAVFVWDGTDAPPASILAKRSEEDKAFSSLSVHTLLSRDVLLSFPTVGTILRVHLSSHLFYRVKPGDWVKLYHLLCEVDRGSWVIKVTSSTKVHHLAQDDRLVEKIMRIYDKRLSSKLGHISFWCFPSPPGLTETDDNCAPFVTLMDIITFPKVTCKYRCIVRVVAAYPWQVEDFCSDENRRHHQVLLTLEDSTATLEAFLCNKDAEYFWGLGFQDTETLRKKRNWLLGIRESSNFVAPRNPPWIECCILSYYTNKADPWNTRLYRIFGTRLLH
binder,measurement,setting,value
B1,binding,[1],no binding
same,binding,[2],binds weakly
same,binding,[3],binds
same,binding,[4],binds weakly
